PubChem BioAssay AID1159584, Peter MacCallum Cancer Centre, 2016

- Assay: 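Knock-downs that harm CDH1-null cells more than parental MCF10A cells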 (primary screen)
- Cell system: human MCF10A breast epithelial cells, parental and CDH1-null
- Reagent: siRNA against human genes
- Measurement: 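Cell viability by CellTiter-Glo ATP luminescence, each line scaled to the mean of mock wells across plates, then CDH1-null over parental ratio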
- Reading the numbers: CDH1-null / parental viability ratio: higher = CDH1-null cells survive relatively better than parental
This is a random part of about 18,000 reagents. Not all columns of the deposit are shown. The record does not give: the amount of reagent, the time to read-out.

target | PubChem SID | CDH1-null / parental viability ratio
ARLN | SID135625291 | 1.19
NIPSNAP1 | SID134315824 | 0.81
ACMSD | SID152149254 | 1.21
SPINK13 | SID152152330 | 0.74
ARHGEF10 | SID135622535 | 1.14
AKTIP | SID135621642 | 1.1
JPT2 | SID152152525 | 1.02
H2AZ1 | SID152154596 | 0.94
VOPP1 | SID152149774 | 1.32
COL18A1 | SID152148915 | 1.36
SENP1 | SID134311751 | 1.23
GBP7 | SID152152776 | 1
CCL21 | SID152156291 | 1.27
CHPT1 | SID135621835 | 0.83
MFHAS1 | SID152155066 | 0.9
OR52M1 | SID152149013 | 1.17
RC3H1 | SID152156253 | 0.85
ANAPC7 | SID134324653 | 0.95
UBQLN1 | SID134317190 | 1.01
MRPL16 | SID134317583 | 0.94
THAP7 | SID152150817 | 1.18
DBP | SID134321607 | 0.65
SLC5A5 | SID134312639 | 0.84
PLSCR4 | SID135624136 | 0.98
RWDD3 | SID152150755 | 1.08
ASNS | SID152152466 | 0.98
KRT19 | SID152146987 | 1.13
HLA-DMB | SID135622484 | 0.88
NXT1 | SID134321144 | 0.49
RXFP1 | SID152155086 | 0.86
ALOX15 | SID134310087 | 1.23
UCN3 | SID134319241 | 1.14
ATN1 | SID152151566 | 0.84
ZNF2 | SID152148193 | 0.86
AMD1 | SID135621878 | 1.29
PDE4B | SID135621425 | 1.09
CD70 | SID152155767 | 0.99
SLC22A12 | SID134312492 | 1.11
PRXL2B | SID152153760 | 0.89
FAM241B | SID135623123 | 0.86
PCDHA4 | SID134317489 | 1.01
MN1 | SID152153899 | 1.11
R3HCC1L | SID152155106 | 1.34
E2F7 | SID152151106 | 1.09
SEMA3C | SID134312726 | 1.37
GJB1 | SID152152074 | 0.88
PCGF5 | SID152153841 | 0.88
FECH | SID152149847 | 1
ACTL7B | SID134316556 | 0.96
SAC3D1 | SID135623982 | 1.06
FLRT3 | SID134314732 | 0.81
RRBP1 | SID152150156 | 0.98

Targets above whose gene name starts with R or r (5):
target | PubChem SID | CDH1-null / parental viability ratio
RC3H1 | SID152156253 | 0.85
RWDD3 | SID152150755 | 1.08
RXFP1 | SID152155086 | 0.86
R3HCC1L | SID152155106 | 1.34
RRBP1 | SID152150156 | 0.98

The results go on.
target | PubChem SID | CDH1-null / parental viability ratio
UGT2B17 | SID135623936 | 1.19
SCN4A | SID135621178 | 1.09
IL7R | SID134312930 | 0.9
MSH2 | SID134310155 | 0.93
XAGE3 | SID135623343 | 0.97
APC | SID152153239 | 1.13
IFI16 | SID152151045 | 1.02
TBC1D20 | SID152148535 | 0.96
LSM6 | SID152155209 | 1.06
MRPL36 | SID134317794 | 0.93
CDX1 | SID152150507 | 1.03
ELF1 | SID134316931 | 1.29
SLC37A2 | SID135621405 | 0.92
GIMAP6 | SID135625367 | 0.92
OR2L13 | SID134313836 | 0.84
CD7 | SID152151646 | 0.83
EGFL7 | SID134319698 | 1.42
SSTR4 | SID152154244 | 0.78
CST2 | SID134321332 | 1.02
MYL12A | SID152148654 | 1.27
PEAK1 | SID152152075 | 0.86
AHSG | SID152150611 | 0.89
ZFP90 | SID135624312 | 0.86
SLC31A2 | SID152155705 | 0.98
SLC2A12 | SID135621397 | 0.99
PRKAG3 | SID56479232 | 1.25
PITPNA | SID152150527 | 0.95
KLK6 | SID135621103 | 1.08
NF1 | SID152155944 | 0.89
TIMM29 | SID134319558 | 0.66
SUGT1P4-STRA6LP-CCDC180 | SID152147698 | 0.61
COXFA4L2 | SID134320123 | 1.01
KPNA3 | SID134315654 | 0.79
GFI1B | SID152153213 | 1.02
NACC1 | SID134319204 | 1.37
